Laboratory results as given in PubChem BioAssay AID463183 (Sanford-Burnham Center for Chemical Genomics, 2010).
Some of the results follow. Further columns of the screen follow, without active or inactive calls. Compounds called inactive in the main read-out are mostly missing here.

test: hepatocyte lipid droplet accumulation inhibitors, confirmation, imaging, AML12 mouse hepatocytes, single concentration, high-content (AID 463183); settings: BODIPY lipid droplet imaging, measured here: cell count, cytotoxicity, at 5.2 µM, droplets induced with 100 µM oleic acid;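 note: cells counted after overnight compound exposure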

Compound | cell count [cells]
Oc1c(N=Nc2ccc(F)cc2)ccc2ccccc12 | 1510
CCn1cc(CCCC(=O)NCc2ccccc2OC)c2ccccc21 | 1660
O=C(NC1CCCc2c1cnn2-c1ccccc1F)c1ccccn1 (centres undefined) | 1510
CCc1cccc(NC(=O)CCCn2nc(CC)n3c(cc4occc43)c2=O)c1 | 1700
Cc1cc(=O)oc2cc(OCC(=O)NC3CCN(Cc4ccccc4)CC3)c(Cl)cc12 | 1610
CCOc1ccc(CCNC(=O)CCc2nc(-c3ccc(OC)cc3)no2)cc1OCC | 1500
CCCCOc1ccc(-c2ncc([N+](=O)[O-])cn2)cc1 | 1560
CCCCCCCCn1c(N2CCN(c3cccc(Cl)c3)CC2)nc2c1c(=O)[nH]c(=O)n2C | 1660
CCC(C)(C)NC(=O)C(c1ccc(C)cc1)N(CC1CCCO1)C(=O)CCC(=O)Nc1ccccn1 (centres undefined) | 1610
Nc1nc(-c2ccc(Cl)cc2)c(N=Nc2ccc(S(=O)(=O)N3CCOCC3)cc2)s1 | 1550
Cc1cc(C)cc(NC(=O)CCC(=O)Nc2cc(C)on2)c1 | 1660
CC(=O)c1ccc(Nc2nc(=O)c3cccnc3s2)cc1 | 1630
CCc1nn2c(N3CCOCC3)cc(C)nc2c1-c1ccc(F)cc1 | 1570
Cc1ccc(-c2cc(-c3c(C)nn(C)c(=O)c3N)[nH]n2)cc1 | 1570
C=CCOc1ccc(/C=N/NC(=O)c2cc3c(OC)cc(OC)cc3[nH]2)cc1 | 1760
C#CCOCCOCCOCCNc1nc(N2CCOCC2)nc(N2CCN(C(=O)[C@H]([C@@H](C)CC)n3cc([C@@H](N)Cc4ccc(O)cc4)nn3)CC2)n1 | 1630
CCCOC(=O)c1ccc(NC(=O)CCOc2ccccc2)cc1 | 1430
CCCCCC(/C=N/Nc1ccc(S(=O)(=O)N2CCOCC2)cc1[N+](=O)[O-])=C\c1ccccc1 | 1700
CCOc1ccc(CCNC(=O)CCS(=O)(=O)c2ccc(Br)cc2)cc1OCC | 1520
COc1ccc(-c2nc(NC(=O)Cn3ccc(C(F)(F)F)n3)sc2C)cc1 | 1550

9 structures already listed, sorted by molecular weight, high to low.
Compound | cell count [cells]
CCCCCC(/C=N/Nc1ccc(S(=O)(=O)N2CCOCC2)cc1[N+](=O)[O-])=C\c1ccccc1 | 1700
CCOc1ccc(CCNC(=O)CCS(=O)(=O)c2ccc(Br)cc2)cc1OCC | 1520
Nc1nc(-c2ccc(Cl)cc2)c(N=Nc2ccc(S(=O)(=O)N3CCOCC3)cc2)s1 | 1550
CCOc1ccc(CCNC(=O)CCc2nc(-c3ccc(OC)cc3)no2)cc1OCC | 1500
O=C(NC1CCCc2c1cnn2-c1ccccc1F)c1ccccn1 (centres undefined) | 1510
Cc1cc(C)cc(NC(=O)CCC(=O)Nc2cc(C)on2)c1 | 1660
CC(=O)c1ccc(Nc2nc(=O)c3cccnc3s2)cc1 | 1630
Cc1ccc(-c2cc(-c3c(C)nn(C)c(=O)c3N)[nH]n2)cc1 | 1570
CCCCOc1ccc(-c2ncc([N+](=O)[O-])cn2)cc1 | 1560

(list continues)

Compound | cell count [cells]
COc1ccccc1Nc1ccc(NC(=O)c2cccc([N+](=O)[O-])c2C)cc1 | 1560
CCCN1C(=O)/C(=C2/C=Cc3ccccc3N2CC)SC1=S | 1690
CCc1ccccc1NS(=O)(=O)c1cc2c(cc1C)n(C)c(=O)c(=O)n2C | 1580
C=CCN1C(=O)/C(=C\C=C2\N(C)c3ccccc3C2(C)C)SC1=S | 1670
CCOc1ccc(CCNC(=O)c2cc(-c3ccccc3)c(N3CCOCC3)s2)cc1OCC | 1660
CCCCn1c(N)c(-c2nc3ccccc3s2)c2c([N+](=O)[O-])nn(CC)c(=O)c21 | 1690
CCOc1ccc(CCNC(=O)Nc2ccccc2C)cc1OCC | 1540
COc1cccc(C(=O)NC2CCCc3c2cnn3-c2cc(C)cc(C)c2)c1 (centres undefined) | 1610
CCCC(=O)Nc1c2c(nc3ccccc13)N(c1ccccc1)CC2 | 1590
CCN(CC)S(=O)(=O)c1ccc(N2C(=O)CC2(/C=C/c2ccccc2)C(=O)NC2CCCC2)cc1 (centres undefined) | 1560
CCNC(=S)N1CCc2cc(OC)c(OC)cc2C1COc1ccccc1OC (centres undefined) | 1580
N#C/C(=C\c1ccc(-c2ccccc2[N+](=O)[O-])o1)C(=O)Nc1nc(-c2cccs2)cs1 | 1630
COc1ccc(CCNC(=O)c2cc3c(F)cccc3s2)cc1OC | 1560
COc1ccc(CN(C)C(=O)CNC(=O)Cc2cccc3ccccc23)c(OC)c1OC | 1600
O=C(Nc1ccccc1)c1ccc(NCC2CCCO2)c(S(=O)(=O)N2CCOCC2)c1 (centres undefined) | 1590
COc1ccc(C)cc1NC(=O)C/C(C)=N/NC(=O)Cc1cccc2ccccc12 | 1710
CCN(CC)S(=O)(=O)c1cc(NC(=O)C(C)OC(=O)c2[nH]c(C)c(C(C)=O)c2C)ccc1C (centres undefined) | 1530
COc1ccc(C(C#N)N2CCOCC2)cc1 (centres undefined) | 1670
CC(C)c1ccccc1NC(=O)COC(=O)c1c2c(nc3ccccc13)CCN(Cc1ccccc1)C2 | 1570
